The values that follow come from ChEMBL document CHEMBL1151922, “Structure-activity relationships of 3,5-disubstituted benzamides as glucokinase activators with potent in vivo efficacy” (Bioorg Med Chem, 2009).

The nature of this data set: Octanol-water distribution coefficient, log D at pH 7.4 by HPLC-MS analysis.

In general, logD refers to the decadic logarithm of the distribution of all forms, ionised or not, between an organic phase and buffer at a given pH. Low readings indicate a more hydrophilic compound, high ones a more lipophilic compound. In turn, `CC(CO)Oc1cc(Oc2ccc(S(C)(=O)=O)cc2)cc(C(=O)Nc2nccs2)c1` (configuration not stated) showed a logD of 2.7.

As to `C[C@@H](CO)Oc1cc(Oc2ccc(S(C)(=O)=O)cc2)cc(C(=O)Nc2nccs2)c1`, the logD was 2.7.
